# Some of the results follow. The main result of the screen is listed elsewhere. These columns were measured beside it and carry no call. Most of these compounds were active or inconclusive in the main read-out, so they are no random draw. Potencies come from curve fits of mixed quality, noted in brackets.
# Assay: qHTS Assay for Lipid Storage Modulators in Drosophila S3 Cells;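 for cell number change: cells counted by Cell Tracker Red CMTPX staining in the red channel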
# Conditions: BODIPY lipid droplet fluorescence, 18-24 h; for cell number change: measured here: cell count max response, cells fed with added oleic acid
# Summary of the method: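 Laser-scanning cytometry quantifies lipid droplet accumulation (500–530 nm total intensity; droplet/cell object ratio) in oleic acid-fed (400 uM added) Drosophila S3 cells treated with a concentration series. 20 uM Triacsin C defined 100% inhibition.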
# [1] = measured here: lipid fluorescence (Fed channel) AC50, cells fed with added oleic acid
# [2] = measured here: cell number channel AC50, cells fed with added oleic acid
SMILES,cell number change,AC50 [1],AC50 [2]
COc1ccc(CNc2nc3c(c(=O)n(Cc4ccc(Cl)cc4)c(=O)n3C)n2C)cc1,-29.6%,"1.03 µM [rising, partial curve, poor fit]",–
O=C1CCC(=O)N1CC1CC2CCC1C2 (stereo unspecified),10.5%,"25.9 µM [falling, single point]",–
COc1ccc(CN2CCNC(=O)C2CC(=O)NCC2CCOCC2)c(C)c1C (stereo unspecified),-1.29%,"0.259 µM [rising, full curve, poor fit]",–
CC(C)(C)C(=O)NC(=S)N1CCCC1,-24.9%,"2.06 µM [falling, partial curve]",–
COc1ccc(C(=O)N2CCc3ccccc32)cc1S(=O)(=O)N1CCOCC1,13.4%,–,–
CCN(CC)CCC#CC(O)(c1ccccc1)C1CCCCC1 (stereo unspecified),-11.3%,–,–
Cc1ccc(C)c(Cn2nc3c4ccccc4n(Cc4ccccc4)cc-3c2=O)c1,125%,–,"16.4 µM [rising, partial curve]"
Cc1cc(-c2n[nH]c(=S)n2-c2ccccc2)nn1C,10.1%,"1.46 µM [rising, full curve, poor fit]",–
Cc1ccc(C2(C)NC(=O)N(CC(=O)Nc3ccc(Cl)c(S(=O)(=O)N4CCCCC4)c3)C2=O)cc1 (stereo unspecified),-42%,–,"29.1 µM [falling, single point]"
Cc1cc(=O)n2nc(N3CCC(C(=O)Nc4c(F)c(F)c(F)c(F)c4F)CC3)sc2n1,9.39%,–,–
CCN(CC)CCn1c2c(c(SCC(=O)NCc3ccccc3)nc1=O)CCC2,7.97%,"9.2 µM [falling, partial curve, poor fit]",–
O=C(c1ccccc1)N1CCCCC(Cl)C1=O (stereo unspecified),-9.4%,"0.00411 µM [rising, full curve, poor fit]",–
O=C(O)c1ccc(COc2c(F)c(F)cc(F)c2F)o1,12.7%,–,–
COc1ccc(C(=O)N[C@H](C(=O)OCc2cc(=O)oc3cc(C)ccc23)C(C)C)cc1,32.1%,"0.116 µM [rising, partial curve, poor fit]","23.1 µM [rising, partial curve, poor fit]"
Clc1ccccc1C1=CC(c2ccco2)n2ncnc2N1 (stereo unspecified),9.93%,"18.4 µM [rising, single point]",–
Cc1ccc(NC(=O)COC(=O)C2COc3ccccc3O2)cc1S(=O)(=O)N1CCOCC1 (stereo unspecified),-46.8%,–,"29.1 µM [falling, single point]"
COc1ccc2oc(=O)cc(CN3CCOCC3)c2c1,-2.92%,"6.51 µM [rising, single point]",–
O=C(CC1S/C(=N/N=C/c2c[nH]c3ccc(OCc4ccccc4)cc23)NC1=O)Nc1ccccc1 (stereo unspecified),-23.7%,"18.4 µM [falling, single point]",–
Cc1cc(NS(=O)(=O)c2c(C(=O)N3CCOCC3)c(C)n(C)c2C)ccc1Br,5.2%,"29.1 µM [rising, single point]",–
Cc1ccc(CC2CC(=O)N(Cc3ccco3)C2=O)cc1 (stereo unspecified),7.02%,"0.411 µM [rising, full curve, poor fit]",–

SMILES,cell number change,AC50 [1],AC50 [2]
COc1cc(NC(=O)C2CCCC2)c(OC)cc1Cl,46.9%,"8.2 µM [rising, partial curve]","0.651 µM [rising, full curve]"
Cc1ccc(CNC(=O)[C@@H]2CCC(=O)N2Cc2ccco2)cc1,-39%,"13 µM [falling, partial curve]","18.4 µM [falling, single point]"
Cc1ccc(NC(=O)Nc2cccnc2)cc1NC(=O)Nc1cccnc1,-25%,"13 µM [falling, single point]",–
CC(C)C(OC(=O)c1nsc(Cl)c1Cl)C(=O)NC(C)(C)C (stereo unspecified),5.81%,–,–
Cc1ccc(O)c(-c2cc(C(=O)Nc3ccc(S(=O)(=O)Nc4nc(C)cc(C)n4)cc3)[nH]n2)c1,-22.8%,"32.6 µM [rising, single point]","2.91 µM [rising, partial curve]"
Clc1ccc(CNc2cnccn2)cc1,–,"0.116 µM [rising, full curve, poor fit]",–
Cc1cc([N+](=O)[O-])cc(C)c1OCC(=O)N/N=C/c1ccc(OC(=O)c2ccccc2)cc1,-18.7%,"2.91 µM [rising, partial curve]","0.731 µM [rising, partial curve, poor fit]"
O=C(CN1CCc2ccccc2C1)NC1CCCC1,–,"0.00461 µM [rising, full curve, poor fit]","0.651 µM [rising, partial curve, poor fit]"
COc1ccc(CC(=O)OCC(=O)N(C)C2CCS(=O)(=O)C2)cc1OC (stereo unspecified),-20.2%,–,"2.59 µM [falling, single point]"
Cc1ccc(NC(=O)c2nnn(-c3cc(C)cc(C)c3)c2N)cc1,-37.9%,"25.9 µM [falling, single point]","0.058 µM [falling, full curve, poor fit]"
COC(C(=O)NNC(=O)CCc1ccccc1)c1ccccc1 (stereo unspecified),-6.07%,"2.06 µM [falling, single point]",–
O=C(NCCNC(=O)c1ccccn1)c1ccc(Cl)cc1,17.1%,"1.16 µM [rising, single point]",–
COC(=O)c1nc2n(n1)C(c1cccc(Cl)c1)C1=C(CC(C)(C)CC1=O)N2 (stereo unspecified),-23%,"1.84 µM [falling, full curve]","1.84 µM [falling, full curve, poor fit]"
Cc1cc(C)c(/C=C(\C#N)C(N)=S)c(C)c1,-52.8%,"2.31 µM [falling, partial curve]","29.1 µM [falling, single point]"
Cc1cccc(-c2nnc(-c3ccccc3)o2)c1,-9.79%,"2.06 µM [rising, full curve]",–
Cc1ccc(NCC(=O)N/N=C/c2ccc(-c3cccc(C(F)(F)F)c3)o2)cc1,-52.7%,"16.4 µM [falling, single point]","20.6 µM [falling, single point]"
CCC1CN(C(=O)N2CCC(C(=O)NCCc3ccc(OC)cc3OC)CC2)c2ccccc2O1 (stereo unspecified),–,"4.61 µM [falling, full curve]",–
CC1(C)Cc2c(sc3c2C(=O)N(c2ccccc2)C2=NCCCN23)CO1,-16.4%,"2.31 µM [falling, partial curve, poor fit]",–
CC1=C(C)C(=O)C(CCCCC#CCCCC#CCO)=C(C)C1=O,8.31%,"4.11 µM [rising, partial curve]",–
Cc1ccc(-c2c[n+](Cc3cccc(Cl)c3)c3n2CCC3)cc1,–,"29.1 µM [falling, single point]",–

# Looked up one by one from the list above:
SMILES,cell number change,AC50 [1],AC50 [2]
O=C(CN1CCc2ccccc2C1)NC1CCCC1,–,"0.00461 µM [rising, full curve, poor fit]","0.651 µM [rising, partial curve, poor fit]"
Cc1ccc(-c2c[n+](Cc3cccc(Cl)c3)c3n2CCC3)cc1,–,"29.1 µM [falling, single point]",–
CC1=C(C)C(=O)C(CCCCC#CCCCC#CCO)=C(C)C1=O,8.31%,"4.11 µM [rising, partial curve]",–
Clc1ccc(CNc2cnccn2)cc1,–,"0.116 µM [rising, full curve, poor fit]",–

# More entries.

SMILES,cell number change,AC50 [1],AC50 [2]
O=C1NC(=Nc2ccccc2)S/C1=C\c1ccccc1,26.6%,"23.1 µM [falling, single point]",–
Cc1cc(C(=O)NCC2CCCCC2)ccc1[N+](=O)[O-],30%,"6.51 µM [falling, single point]",–
CCOCC(=O)Nc1nnc(COC)s1,-77%,"29.1 µM [falling, single point]","1.64 µM [falling, partial curve]"
Cc1ccccc1NP(=O)(c1ccccc1)c1nc2ccccc2s1 (stereo unspecified),29.4%,"14.6 µM [rising, partial curve, poor fit]",–
CCc1ccc(CN(C)C(=O)C2=CC=CN3CCS(=O)(=O)N=C23)cc1,-20.5%,–,–
CC(C)C(=O)Nc1c2c(nn1-c1ccccc1)CSC2,7.37%,"29.1 µM [rising, single point]",–
COc1cccc(N2CCN(C(=O)c3ccc(CSc4nc5ccncc5[nH]4)cc3)CC2)c1,-35.9%,"4.11 µM [falling, full curve]","5.17 µM [falling, partial curve]"
CCC(=O)N(CCc1ccccc1)Cc1cc2cc3c(cc2[nH]c1=O)OCO3,-28.7%,"2.06 µM [falling, partial curve, poor fit]",–
OC1(C#CCN2CCCC2)CCCCC1,-3.28%,"29.1 µM [rising, single point]",–
O=S(=O)(c1ccccc1)N1CCN(c2ncnc3sc(-c4ccccc4)cc23)CC1,-9.94%,–,–
COc1ccc(NS(=O)(=O)c2ccc(O)c(C(=O)OCC(=O)N3CCCCC3)c2)cc1,-14.9%,"0.00461 µM [rising, full curve, poor fit]",–
COCCNC(=O)CN1C(=O)NC2(CCCCCC2)C1=O,–,–,"4.11 µM [rising, single point]"
COc1ccc2oc(=O)c(C(=O)O)cc2c1,-9.92%,"0.00461 µM [falling, full curve, poor fit]",–
Cc1sc(NC(=O)Cn2c(=O)oc3ccccc32)nc1-c1ccc(Cl)cc1,-11.1%,"16.4 µM [falling, single point]",–
NC(=O)CSc1nc2c(c(=O)n1-c1ccccc1)C1(CCCCC1)Cc1ccccc1-2,4.8%,"1.64 µM [rising, partial curve, poor fit]",–
CCc1sc(C(=O)NCc2ccccc2)cc1C,–,–,"0.00411 µM [rising, partial curve, poor fit]"
CCOC(=O)N/N=C/c1ccc(N(CC)CC)cc1O,1.45%,–,–
COc1ccc(NC(=O)CN2C(=O)NC(C)(C3CC3)C2=O)cc1S(=O)(=O)N1CCOCC1 (stereo unspecified),8.49%,–,–
CCOc1ccc(C(=O)NC(C(=O)NCCc2ccc(OC(F)F)cc2)C(C)C)cc1 (stereo unspecified),8.33%,–,–
COc1c2ccoc2c(OC[C@@H](O)C(C)(C)OC)c2oc(=O)ccc12,22.3%,"0.231 µM [rising, full curve, poor fit]",–
